According to article PMC8546544:

Target: NPC1^P692S-GFP
Assay: co-IP; lysate of transfected HEK293T cells (150 mM NaCl, 25 mM Tris-HCl pH 7.6, 1% NP-40) incubated with anti-GFP nanobody affinity gel at 4°C for 4 h; Western blot for the endogenous partner; in one panel cells were untreated, treated with 2.5 mM MβCD or with MβCD plus 20 μg/ml water-soluble cholesterol for 40 min before harvest (MβCD reduced, cholesterol restored the co-precipitate)

B1: endogenous flotillin 2 (FLOT2) (protein, UniProt Q14254 1-428)
chain: MGNCHTVGPNEALVVSGGCCGSDYKQYVFGGWAWAWWCISDTQRISLEIMTLQPRCEDVETAEGVALTVTGVAQVKIMTEKELLAVACEQFLGKNVQDIKNVVLQTLEGHLRSILGTLTVEQIYQDRDQFAKLVREVAAPDVGRMGIEILSFTIKDVYDKVDYLSSLGKTQTAVVQRDADIGVAEAERDAGIREAECKKEMLDVKFMADTKIADSKRAFELQKSAFSEEVNIKTAEAQLAYELQGAREQQKIRQEEIEIEVVQRKKQIAVEAQEILRTDKELIATVRRPAEAEAHRIQQIAEGEKVKQVLLAQAEAEKIRKIGEAEAAVIEAMGKAEAERMKLKAEAYQKYGDAAKMALVLEALPQIAAKIAAPLTKVDEIVVLSGDNSKVTSEVNRLLAELPASVHALTGVDLSKIPLIKKATGVQV
For B1, the binding was “binds”.

No constants are given. Whether binding was seen depends on the method and setting. Binding seen in cells or lysates may run through a third protein. Binding can be weak; no strength is given.
